Data taken from PMC10825186, “A universal metabolite repair enzyme removes a strong inhibitor of the TCA cycle” (Nature Communications, 2024).

Substrate: O=C(O)C=C(O)C(=O)O
Assay: purified protein
Details: pH 7.5, 22 °C, 10 mM potassium phosphate, 0.3 mM NADH, malate dehydrogenase, OAA added in dry acetone

B1: At FAHD2 (Arabidopsis thaliana) (protein)
chain: MATSMIQRLFKQGTKIVGVGLNYASHAKELGNALPKDPIVFLKPTSSYLENGGTIEIPHPLDSLHHEVELAVVIGQKARDVPERLAMNYIGGYALALDMTARELQVSAMASGLPCTLAKGQDTFTPISSVLPKAMVLDPNNLELWLKVDDETRQKGWTKDMIFKVPYLISYISSVMTLFKGDVILTGTPEGIGPVKIGQKITAGITGLSEVQFDVGRRLKPLLR
- Km: 66.0 ± 4.9 µM
- Vmax: 1.7 µmol/min/mg
- kcat: 0.7 s⁻¹
- kcat/Km: 11000 M⁻¹ s⁻¹

B2: At FAHD1 (Arabidopsis thaliana) (protein)
chain: MATSMIQRMFKQGTKIVCVGRNYAAHAKELGNAVPKEPVIFLKPTSSYLENGGTIEIPHPLDSLHHEVELALVIGQKARDVPESIAMDYIGGYAVALDMTARELQASAKASGLPWTVAKGQDTFTPISSVLPKAMVRDPDNLELWLKVDGETRQKGLTKDMIFKVPYLISYISSIMTLYEGDVILTGTPEGVGPVKIGQKITAGITGLSEVQFDVERRVKPLS
- Km: 48.8 ± 1.8 µM
- Vmax: 8.4 µmol/min/mg
- kcat: 3.7 s⁻¹
- kcat/Km: 74800 M⁻¹ s⁻¹
